Measured values: PubChem BioAssay AID2551 (National Center for Advancing Translational Sciences (NCATS), 2010)
In all, about 310,000 compounds went through this assay and about 17,000 (5.5%) were called active. The inconclusive results got no clear call from the source; some entries with a clear call stand among them for comparison. Calls follow the shape of the dose curve; as a rule, active = well fitted inhibition curve with a large enough effect; inconclusive = small, poorly fitted or top-dose-only effect, or effect the other way; inactive = no such curve, though single readings can be large or run the other way. Potencies of inconclusive entries are doubtful fits and often do not repeat.

Amino acid sequences for entries named in this document (tags omitted). A change or cut given only in a name is not applied to a line headed by its entry.
UniProt P51450: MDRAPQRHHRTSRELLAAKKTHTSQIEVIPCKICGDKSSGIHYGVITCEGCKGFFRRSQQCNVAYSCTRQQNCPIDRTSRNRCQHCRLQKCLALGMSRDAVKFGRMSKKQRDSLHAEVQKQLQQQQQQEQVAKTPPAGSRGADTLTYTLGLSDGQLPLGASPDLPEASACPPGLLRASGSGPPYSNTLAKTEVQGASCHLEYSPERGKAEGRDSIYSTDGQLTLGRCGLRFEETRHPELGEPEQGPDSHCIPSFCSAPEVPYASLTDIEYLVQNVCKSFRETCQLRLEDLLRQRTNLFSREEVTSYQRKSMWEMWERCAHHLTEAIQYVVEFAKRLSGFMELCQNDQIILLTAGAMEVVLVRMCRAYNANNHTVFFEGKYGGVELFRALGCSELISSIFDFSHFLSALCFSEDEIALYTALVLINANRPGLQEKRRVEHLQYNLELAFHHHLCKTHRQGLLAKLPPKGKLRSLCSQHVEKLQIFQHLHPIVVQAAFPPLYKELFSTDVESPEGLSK

The compounds below were run against Nuclear receptor ROR-gamma (Mus musculus) (UniProt P51450) (assay: qHTS for inhibitors of ROR gamma transcriptional activity). Details: Drosophila S2 Gal4-RORgamma UAS-luciferase reporter, 20 h; series mostly up to 53.6 µM.
Procedure, shortened: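 Drosophila Schneider cells stably carrying a metallothionein-driven Gal4 DBD–ROR gamma fusion and a UAS-Photinus luciferase reporter were exposed to compound for 1 hr, then induced with copper sulfate (700 uM final) for 20 hr at ambient temperature before luminescence reading.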
Also: nearly all actives have a fitted effect of over 60% in size.
Potency is read from the fitted curve at half-maximal effect.

| SMILES | Potency |
| --- | --- |
| CCN1CCOC(CC(=O)Nc2cccc([N+](=O)[O-])c2)C1=O (centres undefined) | inconclusive: 35.5 µM [inhibitor, single point] |
| CN(C)c1nc(C=C(C#N)C#N)c(Cl)n1-c1ccc(F)cc1 | active: 14.1 µM |
| COC(=O)C1=C(C)N(c2ccc(F)c(Cl)c2)C(=O)C1 | inconclusive: 35.5 µM [inhibitor, single point] |
| COc1ccc2c(c1)C(=O)[C@@H](OC(=O)Nc1ccc(C)c(Br)c1)[C@H](c1ccc(OC)c(Br)c1)O2 | inactive |
| Cc1cccc(N=C2NC(=O)/C(=C/c3cccs3)S2)c1 | inconclusive: 7.94 µM [inhibitor, single point] |
| CN(C)c1ccc(NC(=O)Nc2cccc3ccccc23)cc1 | inconclusive: 7.08 µM [activator, partial curve, poor fit] |
| O=c1[nH]c2cc3c(cc2cc1CN(Cc1ccccc1)Cc1nnnn1Cc1ccco1)OCCO3 | inconclusive: 14.1 µM [activator, single point] |
| COCCN(CC(=O)Nc1ccccc1C)S(=O)(=O)c1ccc(S(=O)(=O)N2CCCC2)cc1 | inactive |
| Cc1nnc(NC(=O)Nc2ccc(Cl)c(Cl)c2)s1 | inconclusive: 2.82 µM [activator, single point] |
| CCC(C)(C)n1nnnc1C(c1ccncc1)N1CCC(Cc2ccccc2)CC1 (centres undefined) | inactive |
| Cc1[nH]c2ccccc2c1C(=O)CSc1nc2ccccc2[nH]1 | inconclusive: 12.6 µM [activator, partial curve] |
| Nc1c(Cl)ncnc1N/N=C/c1ccc(O)cc1 | active: 10 µM |
| Cc1cccc(C)c1OC(=O)CSc1nnc(-c2ccccc2)o1 | inconclusive: 25.1 µM [inhibitor, single point] |
| C=CCn1c(=O)c2ccccc2n2c(SCc3nc4ccccc4s3)nnc12 | inconclusive: 6.31 µM [activator, full curve, poor fit] |
| Nc1ccccc1-n1c(=O)n(Cc2ccccc2F)c(=O)c2[nH]cnc21 | inactive |
| O=C(C(=O)N1CCN(c2ccccc2)CC1)c1cn(CC(=O)N2CCCCCC2)c2ccccc12 | inconclusive: 35.5 µM [activator, single point] |
| O=C(N/N=C/c1ccc[nH]1)c1ccccc1OCc1ccc(F)cc1 | inconclusive: 22.4 µM [inhibitor, single point] |
| CCN(CC)CCOc1cccc(C(C)C)c1 | inactive |
| O=C(Nc1nnc(-c2ccco2)o1)c1ccc(Cl)s1 | active: 2 µM |
| Cc1cccc(C)c1N=C1NN=C(c2ccccc2F)CS1 | active: 7.94 µM |
| Cc1noc(C)c1-c1ccc2ncnc(N(C)C)c2c1 | inconclusive: 11.2 µM [inhibitor, partial curve] |
| COc1ccc(-c2nc(CCNC(=O)c3cccs3)cs2)cc1 | inconclusive: 3.98 µM [activator, full curve] |
| COc1ccnc(CSC(N)=Nc2ccccc2C(F)(F)F)c1 | inconclusive: 35.5 µM [inhibitor, single point] |
| CC(C)=CC(=O)OCC(=O)Nc1nc(C)c(Cl)cc1Cl | inactive |
| COc1ccc(C(=O)NC(=S)N2CCNC(=O)C2CC(=O)OC(C)C)cc1 (centres undefined) | active: 4.47 µM |

| SMILES | Potency |
| --- | --- |
| O=[N+]([O-])c1cc(Br)cc(C=Nc2ccc3c(c2)OCO3)c1O | inconclusive: 15.8 µM [inhibitor, single point] |
| CC(=O)Nc1cccc(NC(=O)Cc2nc(-c3ccccc3)sc2-c2ccc(C)cc2)c1 | inconclusive: 20 µM [activator, partial curve] |
| Oc1ccc(C2=CSC3=NCCN23)cc1O | inconclusive: 3.55 µM [activator, full curve, poor fit] |
| FC(F)(F)c1cc(CCN2C(=S)NC[C@@H]2CC2CCCCC2)cc(C(F)(F)F)c1 | active: 2.24 µM |
| CCCNC(=O)NC(=O)CSc1nncs1 | inactive |
| CCCSc1nsc(SCCC)c1C(N)=O | inconclusive: 14.1 µM [activator, single point] |
| O=S(=O)(NCCSCc1ccc(Cl)cc1Cl)c1ccc2c(c1)OCCO2 | inactive |
| Cc1cccc(CN2CCCC(C(=O)c3ccc4c5c(cccc35)CC4)C2)n1 (centres undefined) | active: 3.98 µM |
| CCOC(=O)N1CCC(N2Cc3cccc(C(=O)NCc4ccccc4OC)c3C2=O)CC1 | inconclusive: 1.41 µM [activator, full curve, poor fit] |
| Cc1cccc(-c2nnn3c2nc(NCCc2ccc(S(N)(=O)=O)cc2)c2ccccc23)c1 | inconclusive: 35.5 µM [inhibitor, single point] |
| COc1ccc(-c2cn3ccccc3n2)cc1[N+](=O)[O-] | inconclusive: 4.47 µM [activator, single point] |
| CCOC(=O)Cc1csc(SCC(=O)c2c(N)n(CC(C)C)c(=O)n(C)c2=O)n1 | inconclusive: 2.51 µM [activator, single point] |
| C/C(=N\NC(=O)COc1ccccc1)c1cccs1 | inactive |
| Nc1nc(SCC(=O)c2cccs2)n[nH]1 | inactive |
| N=c1nc(SCCC(=O)O)ss1 | inconclusive: 7.08 µM [inhibitor, partial curve, poor fit] |
| COC(=O)c1cc(OC)c(OC)cc1NCC(=O)Nc1ccc(OC)c(OC)c1 | inconclusive: 6.31 µM [activator, full curve, poor fit] |
| Cc1cc(Cl)ccc1OCC(=O)N1CCCN(C(=O)COc2ccc(Cl)cc2C)CC1 | inconclusive: 15.8 µM [activator, single point] |
| CCS(=O)(=O)c1nc(S(=O)(=O)c2ccc(Cl)cc2)c(N2CCCC2)s1 | inactive |
| CC1CCN(C(=O)c2ccc(COc3ccccc3Cl)o2)CC1 | inconclusive: 1.26 µM [activator, partial curve] |
| Cc1ccc2nc(-c3ccccn3)oc2c1 | active: 10 µM |
| O=C(N/N=C/c1ccccn1)c1cccc([N+](=O)[O-])c1 | active: 4.47 µM |
| CCCn1c(C2CCCN2c2nc(-c3cccc(Br)c3)cs2)nc2cc(Cl)c(Cl)cc21 (centres undefined) | active: 2.51 µM |
| O=C(Nc1ccc(S(=O)(=O)N2CCCCC2)cc1)c1ccco1 | inconclusive: 12.6 µM [activator, single point] |
| Cc1ccc(NC(=S)N2CCN(S(=O)(=O)c3ccc(C)cc3)CC2)cc1 | active: 12.6 µM |
| COc1ccccc1N1CCN(c2ccnc3cc(Cl)ccc23)CC1 | inactive |

| SMILES | Potency |
| --- | --- |
| COc1ccc(C)cc1NC(=O)CNC(c1ccccc1)c1ccccc1 | inactive |
| Cc1cc(-c2n[nH]c(=S)n2Cc2ccco2)n(C)n1 | inconclusive: 20 µM [inhibitor, single point] |
| COc1ccc(C(=O)NCC2OCCc3ccccc32)c(O)c1 (centres undefined) | inconclusive: 10 µM [activator, partial curve] |
| Cc1cc(NCCCN(C)C)n2nc(-c3cccs3)cc2n1 | inconclusive: 1.78 µM [inhibitor, full curve, poor fit] |
| O=C(NCc1ccccn1)c1coc(=O)c(Br)c1 | inactive |
| CCc1ccc(NC(=O)C/C(C)=N/NC(=O)OCc2ccc(OC)cc2)cc1 | inconclusive: 10 µM [activator, partial curve] |
| O=C(N/N=C/c1ccccn1)c1ccc(Br)cc1 | active: 6.31 µM |
| Nc1ccc(/C=C/C(=O)c2ccco2)cc1 | inconclusive: 35.5 µM [inhibitor, single point] |
| COc1ccc(Nc2cc(C)c3ccc(O)cc3n2)cc1 | inconclusive: 22.4 µM [inhibitor, single point] |
| COC(=O)CC(=O)CSc1nc2c(cc1C#N)CCC2 | inconclusive: 11.2 µM [inhibitor, partial curve, poor fit] |
| COc1ccc(/C=C(\C#N)c2nc3ccccc3[nH]2)cc1O | inconclusive: 2.24 µM [activator, full curve] |
| Cc1ccc(N(C(=O)c2nsc(Cl)c2Cl)C(C(=O)NC2CCCC2)c2ccc(O)cc2)cc1C (centres undefined) | inconclusive: 35.5 µM [activator, single point] |
| O=C(CSc1nc2nc(-c3cccs3)cc(C(F)(F)F)c2c(=O)[nH]1)Nc1ccc(F)c(F)c1 | inconclusive: 35.5 µM [inhibitor, single point] |
| COC(=O)C(C)NC(=O)CNS(=O)(=O)c1ccc(F)cc1 (centres undefined) | inactive |
| Clc1ccc(SCc2nc3ccccc3[nH]2)cc1 | inconclusive: 12.6 µM [inhibitor, single point] |
| C=CCn1c(SCC(=O)c2cccs2)nc2sc(C)cc2c1=O | inconclusive: 31.6 µM [activator, single point] |
| CCc1cccc(C)c1NC(=S)NCc1cccn1C | inconclusive: 14.1 µM [inhibitor, single point] |
| O=C(COC(=O)C1(c2ccc(F)cc2)CCCC1)NCc1ccco1 | inconclusive: 11.2 µM [inhibitor, partial curve, poor fit] |
| O=C(Oc1ccc(Cl)c2cccnc12)c1ccco1 | active: 0.891 µM |
| Cc1onc(-c2c(Cl)cccc2Cl)c1C(=O)N/N=C(\N)COc1ccc(Cl)cc1 | active: 0.447 µM |
| Cc1ccc(OCC(=O)NCc2cccs2)c([N+](=O)[O-])n1 | inactive |
| Cc1ccc(S(=O)(=O)N(C)c2ccc(C(=O)Nc3cccc(C)n3)cc2)cc1 | inconclusive: 35.5 µM [activator, single point] |
| O=C(/C=C/c1ccc(S(=O)(=O)N2CCOCC2)cc1)N1CCN(c2ccc(F)cc2)CC1 | inconclusive: 11.2 µM [activator, partial curve] |
| COc1cccc2c(N/N=C/c3ccc(O)c(O)c3)cc(C)nc12 | inconclusive: 35.5 µM [activator, single point] |

Structural class, the entries above with a CF3 group (3)

| SMILES | Potency |
| --- | --- |
| COc1ccnc(CSC(N)=Nc2ccccc2C(F)(F)F)c1 | inconclusive: 35.5 µM [inhibitor, single point] |
| FC(F)(F)c1cc(CCN2C(=S)NC[C@@H]2CC2CCCCC2)cc(C(F)(F)F)c1 | active: 2.24 µM |
| O=C(CSc1nc2nc(-c3cccs3)cc(C(F)(F)F)c2c(=O)[nH]1)Nc1ccc(F)c(F)c1 | inconclusive: 35.5 µM [inhibitor, single point] |
